Laboratory results: patent publication US8518965B2, “Compositions and methods for treating cancer” (Trustees of Dartmouth College, priority 2009, dated 2013)
Some of these results come from one statement about several compounds together.

Test system: SF 295 human glioblastoma cells
Experiment: Colony formation assay, SF 295 cells
Format: cell-based
Settings: comparison with structural derivatives; text cites Table 21
Procedure: NCI/ADR-RES human breast cancer cells (500 cells), HCT116 human colon cancer cells (400 cells) or SF 295 human glioblastoma cells (1000 cells) were plated in 60 mm Petri dishes containing 2.7 ml of medium (modified McCoy's 5a medium containing 10% fetal bovine serum and 100 units/ml penicillin and 100 μg/ml streptomycin). The cells were incubated in a CO2 incubator at 37° C. for 5 hours for attachment to the bottom of Petri dishes. Compounds were prepared fresh in medium at ten times the final concentration, and then 0.3 ml of this stock solution was added to the 2.7 ml of medium in the dish. The cells were then incubated with compounds for 72 hours at 37° C. […] The cell colonies were counted using a colony counter after incubation for 14 days for NCI/ADR-RES cells and 10 days for HCT116 cells and SF 295 cells. […]
One thousand SF 295 cells were plated in 60 mm Petri dishes containing 2.7 ml of medium (modified McCoy's 5a medium containing 10% fetal bovine serum and 100 units/ml penicillin and 100 μg/ml streptomycin). […] After incubation for 10 days, the cell colonies were counted using a colony counter. Cell survival was calculated and the values of IC50 were determined for each compound tested.

With `c1ccc2c(Nc3ccc(Oc4ccc(Nc5ccnc6ccccc56)cc4)cc3)ccnc2c1` [Compound D245B] the “IC50 values lower than the IC50 values of structural derivatives” value was “at least 7 fold”.

In the case of `Cc1cc(Nc2ccc(Oc3ccc(Nc4cc(C)nc5ccccc45)cc3)cc2)c2ccccc2n1` [Compound D288], the “IC50 values lower than the IC50 values of structural derivatives” value is reported as “at least 7 fold”.
